The record followed here is publication PMC12097031.

Amino acid sequences for entries named in this document (tags omitted). A change or cut given only in a name is not applied to a line headed by its entry.
UniProt P31749: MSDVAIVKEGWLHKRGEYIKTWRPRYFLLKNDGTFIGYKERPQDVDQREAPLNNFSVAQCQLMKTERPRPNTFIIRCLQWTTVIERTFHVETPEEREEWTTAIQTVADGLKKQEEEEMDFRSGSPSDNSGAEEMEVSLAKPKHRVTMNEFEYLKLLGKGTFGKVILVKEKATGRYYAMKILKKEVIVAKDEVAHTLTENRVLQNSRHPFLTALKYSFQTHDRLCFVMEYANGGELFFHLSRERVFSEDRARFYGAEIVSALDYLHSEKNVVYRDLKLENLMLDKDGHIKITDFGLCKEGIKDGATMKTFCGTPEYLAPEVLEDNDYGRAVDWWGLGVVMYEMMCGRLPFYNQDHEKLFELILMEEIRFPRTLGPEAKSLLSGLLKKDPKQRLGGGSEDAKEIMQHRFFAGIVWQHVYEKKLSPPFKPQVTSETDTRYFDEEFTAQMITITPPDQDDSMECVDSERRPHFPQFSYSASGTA
UniProt P63151: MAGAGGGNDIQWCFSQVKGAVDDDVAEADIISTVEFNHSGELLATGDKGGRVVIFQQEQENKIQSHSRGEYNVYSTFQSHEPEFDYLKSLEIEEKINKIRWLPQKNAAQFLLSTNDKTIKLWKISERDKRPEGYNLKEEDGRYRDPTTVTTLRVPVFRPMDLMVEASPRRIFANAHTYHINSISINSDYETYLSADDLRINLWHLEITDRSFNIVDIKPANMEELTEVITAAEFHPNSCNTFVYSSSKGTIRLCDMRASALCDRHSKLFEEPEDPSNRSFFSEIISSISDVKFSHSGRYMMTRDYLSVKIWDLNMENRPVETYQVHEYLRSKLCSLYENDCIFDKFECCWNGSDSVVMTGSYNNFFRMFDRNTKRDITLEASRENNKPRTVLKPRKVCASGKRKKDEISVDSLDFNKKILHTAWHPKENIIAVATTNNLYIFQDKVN

Test [1] has as its target Flag-tagged AKT1 E17K mutant (UniProt P31749). Description: affinity purification with mass spectrometry; Flag immunoprecipitation from MCF-10A cells transfected with Flag-AKT1^WT or Flag-AKT1^E17K, with SVIL-AS1 knockdown; differential protein bands sent for MS.
In test [2] the target is Flag-tagged AKT1 wild-type (UniProt P31749). The description is as above.
The target of test [3] is Flag-tagged AKT1 E17K mutant (UniProt P31749). The test can be described thus: condition: only control cells without SVIL-AS1 knockdown; affinity purification with mass spectrometry; Flag immunoprecipitation from control MCF-10A cells (no SVIL-AS1 knockdown) transfected with Flag-AKT1^WT or Flag-AKT1^E17K; differential protein bands sent for MS.
Test [4] addresses Flag-tagged AKT1 wild-type (UniProt P31749). The test is described as above.

Results are given in words; binding and its absence hold for the method and conditions named. In cells and extracts the contact can be indirect. These calls come from enrichment with a bait or labelling near it, and not all partners need be listed. For some of these results: No binding means not detected with the bait.

In the case of “PPP2R2A, regulatory subunit (PP2A B) of the PP2A holoenzyme (from UniProt P63151 1-447)”, the binding result is “binds” in test [1], “binds” in test [2], “no binding” in test [3] and “no binding” in test [4].
